According to the supplement of paper PMC10849652:
This is one part of the list.

Amino acid sequences for entries named in this document (tags omitted). A change or cut given only in a name is not applied to a line headed by its entry.
UniProt Q5T4F4: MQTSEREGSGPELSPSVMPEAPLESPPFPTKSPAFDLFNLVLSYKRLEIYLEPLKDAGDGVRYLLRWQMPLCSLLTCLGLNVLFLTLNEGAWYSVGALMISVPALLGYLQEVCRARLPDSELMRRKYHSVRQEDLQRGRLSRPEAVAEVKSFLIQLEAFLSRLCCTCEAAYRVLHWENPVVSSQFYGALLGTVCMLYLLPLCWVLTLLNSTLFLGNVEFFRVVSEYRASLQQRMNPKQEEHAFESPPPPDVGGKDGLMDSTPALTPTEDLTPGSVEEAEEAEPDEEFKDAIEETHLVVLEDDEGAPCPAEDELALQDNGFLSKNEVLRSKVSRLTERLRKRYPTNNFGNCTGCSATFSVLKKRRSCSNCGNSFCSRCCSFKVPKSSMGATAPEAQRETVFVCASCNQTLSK
UniProt A8MPS7: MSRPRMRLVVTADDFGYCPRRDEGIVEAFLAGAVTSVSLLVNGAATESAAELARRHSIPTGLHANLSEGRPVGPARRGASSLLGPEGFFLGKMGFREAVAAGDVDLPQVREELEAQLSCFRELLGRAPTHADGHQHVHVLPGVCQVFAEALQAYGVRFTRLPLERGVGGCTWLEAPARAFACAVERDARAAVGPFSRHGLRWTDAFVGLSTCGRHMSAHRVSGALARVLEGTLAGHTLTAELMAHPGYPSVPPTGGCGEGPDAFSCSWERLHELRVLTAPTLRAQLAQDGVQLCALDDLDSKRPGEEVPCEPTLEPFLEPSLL
UniProt P13010: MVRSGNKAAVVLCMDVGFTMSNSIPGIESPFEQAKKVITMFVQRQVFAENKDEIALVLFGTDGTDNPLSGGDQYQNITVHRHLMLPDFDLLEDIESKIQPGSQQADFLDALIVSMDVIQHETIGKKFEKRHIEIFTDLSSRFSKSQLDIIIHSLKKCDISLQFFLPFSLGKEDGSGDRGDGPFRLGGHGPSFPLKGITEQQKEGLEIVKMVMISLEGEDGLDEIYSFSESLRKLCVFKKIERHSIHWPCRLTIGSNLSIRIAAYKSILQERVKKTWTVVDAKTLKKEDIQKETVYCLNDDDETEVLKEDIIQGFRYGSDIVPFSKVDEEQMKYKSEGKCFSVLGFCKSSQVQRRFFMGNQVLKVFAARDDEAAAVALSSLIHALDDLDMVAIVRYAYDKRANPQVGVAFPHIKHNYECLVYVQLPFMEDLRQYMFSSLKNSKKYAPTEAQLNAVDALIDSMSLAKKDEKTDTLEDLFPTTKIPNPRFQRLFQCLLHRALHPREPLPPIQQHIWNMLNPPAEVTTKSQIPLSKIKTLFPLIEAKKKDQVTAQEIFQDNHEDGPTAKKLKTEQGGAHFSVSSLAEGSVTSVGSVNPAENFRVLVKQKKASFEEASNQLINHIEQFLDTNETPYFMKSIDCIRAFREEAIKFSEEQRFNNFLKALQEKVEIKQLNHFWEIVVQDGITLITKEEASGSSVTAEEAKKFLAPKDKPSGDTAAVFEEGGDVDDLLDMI
UniProt Q9GZM5: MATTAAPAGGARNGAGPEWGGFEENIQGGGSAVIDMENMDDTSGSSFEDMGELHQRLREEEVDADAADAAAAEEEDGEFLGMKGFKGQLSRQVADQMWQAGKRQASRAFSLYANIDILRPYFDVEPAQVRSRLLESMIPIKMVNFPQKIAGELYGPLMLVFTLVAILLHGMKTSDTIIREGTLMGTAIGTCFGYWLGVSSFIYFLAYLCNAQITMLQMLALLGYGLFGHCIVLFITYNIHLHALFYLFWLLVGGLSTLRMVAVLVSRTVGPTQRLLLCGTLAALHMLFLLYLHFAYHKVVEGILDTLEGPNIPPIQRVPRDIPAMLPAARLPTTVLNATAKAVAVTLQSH
UniProt P12956: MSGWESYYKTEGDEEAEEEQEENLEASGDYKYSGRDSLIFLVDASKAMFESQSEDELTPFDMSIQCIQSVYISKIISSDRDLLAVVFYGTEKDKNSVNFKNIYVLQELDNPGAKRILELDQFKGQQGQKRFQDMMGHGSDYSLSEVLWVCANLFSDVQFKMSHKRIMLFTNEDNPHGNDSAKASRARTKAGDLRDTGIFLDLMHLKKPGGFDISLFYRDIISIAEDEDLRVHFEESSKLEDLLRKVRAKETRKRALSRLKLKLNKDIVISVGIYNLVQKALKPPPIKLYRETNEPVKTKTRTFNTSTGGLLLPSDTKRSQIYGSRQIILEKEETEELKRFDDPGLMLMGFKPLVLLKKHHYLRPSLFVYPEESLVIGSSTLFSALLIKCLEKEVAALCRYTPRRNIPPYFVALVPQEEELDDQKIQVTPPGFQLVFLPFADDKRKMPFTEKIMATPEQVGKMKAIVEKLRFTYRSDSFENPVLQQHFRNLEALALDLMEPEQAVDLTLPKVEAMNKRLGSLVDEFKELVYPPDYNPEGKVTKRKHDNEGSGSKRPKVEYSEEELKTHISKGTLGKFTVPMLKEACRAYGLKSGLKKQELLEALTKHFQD
UniProt Q7Z7L7: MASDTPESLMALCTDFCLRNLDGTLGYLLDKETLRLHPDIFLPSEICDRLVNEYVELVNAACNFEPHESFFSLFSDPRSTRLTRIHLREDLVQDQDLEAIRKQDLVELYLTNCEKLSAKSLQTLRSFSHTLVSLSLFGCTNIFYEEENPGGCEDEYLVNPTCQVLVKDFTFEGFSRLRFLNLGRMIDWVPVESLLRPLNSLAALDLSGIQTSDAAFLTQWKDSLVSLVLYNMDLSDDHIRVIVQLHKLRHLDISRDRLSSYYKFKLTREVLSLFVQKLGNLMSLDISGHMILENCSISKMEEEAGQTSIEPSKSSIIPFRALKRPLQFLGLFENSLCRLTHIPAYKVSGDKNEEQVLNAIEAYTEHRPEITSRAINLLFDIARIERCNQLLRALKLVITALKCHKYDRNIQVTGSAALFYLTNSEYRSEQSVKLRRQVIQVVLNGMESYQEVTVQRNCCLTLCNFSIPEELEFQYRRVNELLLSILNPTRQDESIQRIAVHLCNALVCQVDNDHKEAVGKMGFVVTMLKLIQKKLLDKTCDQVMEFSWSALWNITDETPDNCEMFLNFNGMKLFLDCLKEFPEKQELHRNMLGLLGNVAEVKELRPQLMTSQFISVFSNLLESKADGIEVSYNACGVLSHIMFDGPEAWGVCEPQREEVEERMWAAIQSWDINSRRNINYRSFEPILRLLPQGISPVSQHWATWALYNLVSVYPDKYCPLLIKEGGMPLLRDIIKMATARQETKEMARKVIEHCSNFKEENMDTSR
UniProt Q9UIA9: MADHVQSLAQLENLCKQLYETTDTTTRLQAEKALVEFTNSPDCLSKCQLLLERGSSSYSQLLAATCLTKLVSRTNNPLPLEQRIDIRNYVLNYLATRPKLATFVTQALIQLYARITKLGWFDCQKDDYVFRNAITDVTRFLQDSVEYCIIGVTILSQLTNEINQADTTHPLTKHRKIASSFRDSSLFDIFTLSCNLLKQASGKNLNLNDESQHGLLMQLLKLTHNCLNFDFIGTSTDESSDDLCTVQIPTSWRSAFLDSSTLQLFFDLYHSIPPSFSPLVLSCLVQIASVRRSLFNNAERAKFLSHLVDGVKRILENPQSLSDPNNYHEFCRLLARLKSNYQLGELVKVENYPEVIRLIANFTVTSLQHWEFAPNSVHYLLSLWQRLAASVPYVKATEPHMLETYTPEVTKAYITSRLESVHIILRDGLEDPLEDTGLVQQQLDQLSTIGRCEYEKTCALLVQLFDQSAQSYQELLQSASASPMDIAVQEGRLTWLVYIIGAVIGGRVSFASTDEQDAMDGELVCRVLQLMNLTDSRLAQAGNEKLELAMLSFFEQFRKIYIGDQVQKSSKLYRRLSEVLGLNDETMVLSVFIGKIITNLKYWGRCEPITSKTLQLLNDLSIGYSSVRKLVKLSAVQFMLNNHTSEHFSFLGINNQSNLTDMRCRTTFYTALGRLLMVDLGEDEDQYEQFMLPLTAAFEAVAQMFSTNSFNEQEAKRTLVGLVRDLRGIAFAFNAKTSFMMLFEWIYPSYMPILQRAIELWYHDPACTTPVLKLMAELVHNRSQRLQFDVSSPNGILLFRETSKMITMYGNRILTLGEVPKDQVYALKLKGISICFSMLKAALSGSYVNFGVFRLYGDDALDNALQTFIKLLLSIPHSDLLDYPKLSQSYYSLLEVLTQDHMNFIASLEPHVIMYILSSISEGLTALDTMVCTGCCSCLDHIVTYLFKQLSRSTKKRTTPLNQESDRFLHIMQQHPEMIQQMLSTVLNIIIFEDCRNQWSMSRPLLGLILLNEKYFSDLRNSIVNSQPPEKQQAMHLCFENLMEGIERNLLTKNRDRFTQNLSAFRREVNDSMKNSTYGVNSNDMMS
UniProt Q96EC8: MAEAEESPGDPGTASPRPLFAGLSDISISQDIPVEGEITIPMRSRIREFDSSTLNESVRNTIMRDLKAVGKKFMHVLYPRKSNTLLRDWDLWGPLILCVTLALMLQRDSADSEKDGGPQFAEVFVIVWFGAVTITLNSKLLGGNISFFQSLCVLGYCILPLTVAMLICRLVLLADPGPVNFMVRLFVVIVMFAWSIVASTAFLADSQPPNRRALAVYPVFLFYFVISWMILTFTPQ
UniProt Q8IX07: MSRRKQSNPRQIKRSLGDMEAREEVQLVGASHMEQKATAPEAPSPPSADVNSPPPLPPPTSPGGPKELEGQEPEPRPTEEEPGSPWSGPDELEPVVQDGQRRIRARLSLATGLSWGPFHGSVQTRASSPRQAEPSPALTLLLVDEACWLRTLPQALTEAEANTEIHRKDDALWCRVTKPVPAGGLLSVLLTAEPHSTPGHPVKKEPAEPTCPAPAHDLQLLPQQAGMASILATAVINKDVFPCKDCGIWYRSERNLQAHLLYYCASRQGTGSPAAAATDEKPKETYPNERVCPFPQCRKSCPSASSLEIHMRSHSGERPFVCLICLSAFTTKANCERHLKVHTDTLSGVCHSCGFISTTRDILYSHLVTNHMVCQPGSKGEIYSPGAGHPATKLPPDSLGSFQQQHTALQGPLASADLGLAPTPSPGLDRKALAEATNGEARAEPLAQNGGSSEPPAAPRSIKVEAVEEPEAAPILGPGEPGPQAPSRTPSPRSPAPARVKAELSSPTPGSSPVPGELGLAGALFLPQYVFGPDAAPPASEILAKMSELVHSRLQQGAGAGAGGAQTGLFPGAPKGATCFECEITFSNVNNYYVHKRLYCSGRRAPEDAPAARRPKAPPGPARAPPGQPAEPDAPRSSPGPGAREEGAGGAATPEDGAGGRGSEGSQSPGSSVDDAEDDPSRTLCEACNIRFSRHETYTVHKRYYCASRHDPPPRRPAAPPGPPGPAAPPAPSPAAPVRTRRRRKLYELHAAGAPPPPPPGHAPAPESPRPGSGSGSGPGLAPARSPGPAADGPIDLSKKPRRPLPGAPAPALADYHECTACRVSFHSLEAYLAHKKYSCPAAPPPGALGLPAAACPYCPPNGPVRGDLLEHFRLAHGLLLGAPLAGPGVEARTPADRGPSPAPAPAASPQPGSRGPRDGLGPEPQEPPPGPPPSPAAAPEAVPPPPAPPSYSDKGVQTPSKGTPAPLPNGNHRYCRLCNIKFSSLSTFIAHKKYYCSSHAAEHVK
UniProt Q9UGR2: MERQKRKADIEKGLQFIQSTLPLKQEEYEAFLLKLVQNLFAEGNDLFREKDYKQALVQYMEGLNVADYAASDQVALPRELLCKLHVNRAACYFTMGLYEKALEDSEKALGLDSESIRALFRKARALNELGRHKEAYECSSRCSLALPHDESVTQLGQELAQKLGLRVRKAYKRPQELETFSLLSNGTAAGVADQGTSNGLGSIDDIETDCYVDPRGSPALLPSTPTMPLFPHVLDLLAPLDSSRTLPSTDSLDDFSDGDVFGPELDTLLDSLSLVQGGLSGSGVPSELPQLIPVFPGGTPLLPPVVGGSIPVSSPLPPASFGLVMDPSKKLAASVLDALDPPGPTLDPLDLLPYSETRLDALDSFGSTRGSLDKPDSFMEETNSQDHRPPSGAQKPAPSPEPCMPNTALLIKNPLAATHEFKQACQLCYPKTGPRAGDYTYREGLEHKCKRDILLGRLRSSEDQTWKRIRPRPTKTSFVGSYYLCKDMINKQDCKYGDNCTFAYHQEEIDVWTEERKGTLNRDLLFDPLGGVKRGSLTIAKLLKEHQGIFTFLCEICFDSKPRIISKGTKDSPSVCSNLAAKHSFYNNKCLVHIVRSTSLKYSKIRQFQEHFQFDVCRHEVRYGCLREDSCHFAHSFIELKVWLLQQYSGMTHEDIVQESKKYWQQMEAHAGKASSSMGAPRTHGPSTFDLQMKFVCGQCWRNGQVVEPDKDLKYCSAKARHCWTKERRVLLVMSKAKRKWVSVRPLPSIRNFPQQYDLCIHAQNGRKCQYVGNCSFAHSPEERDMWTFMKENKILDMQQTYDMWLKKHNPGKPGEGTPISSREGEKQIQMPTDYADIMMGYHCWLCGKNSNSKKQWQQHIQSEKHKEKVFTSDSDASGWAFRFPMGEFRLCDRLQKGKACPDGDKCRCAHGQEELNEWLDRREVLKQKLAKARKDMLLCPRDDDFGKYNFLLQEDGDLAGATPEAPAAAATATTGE

Tests used:
Assay in all cases: log2 fold change, soluble protein after heating vs DMSO (PISA); higher = thermal stabilisation; K562 lysate, 10 uM; active = over 0.2 and 3.5 SD of the protein, either way, in both replicates (recomputed)
erlotinib = compound: C#Cc1cccc(Nc2ncnc3cc(OCCOC)c(OCCOC)cc23)c1 [erlotinib]
How it was run: (§1)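 Pellets of K562 cells were dounce-homogenised in PBS pH 7.4 with 1 mM MgCl2, and the crude extract was held at 1 mg/mL protein for a 30 min treatment with 10 μM compound. Aliquots were heated for 3 min over 48°C-58°C and pooled before NP-40 was added to 0.5% at 4°C. The supernatant from 21,000xg for 90 min was quantified by TMTpro 16plex LC-MS/MS with channel sums equalised. Values are reported from duplicates as log-two fold change in thermal stability relative to solvent controls.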

[1] = compound: C/C(=N\NC(=O)C1=CC(=CC=C1)S(=O)(=O)N2CCOCC2)/C3=C(C=CC(=C3)Cl)O
How it was run: as §1

[2] = compound: C1=CC(=CC=C1C2=NC3=C(N2)C=C(C=C3)C(=O)N)OC4=CC=C(C=C4)Cl
How it was run: as §1

[3] = compound: C1=CC2=C(C=CC(=C2)/C=C\3/C(=O)NC(=NCC4=CC=CS4)S3)N=C1
How it was run: as §1

[4] = compound: C1=CC2=NC=CN=C2C=C1/C=C/3\C(=O)NC(=O)S3
How it was run: as §1

[5] = compound: C1=CC=C(C=C1)C2=NC(=C(N2)C3=CC=NC=C3)C4=CC(=C(C=C4)Cl)O
How it was run: as §1

[6] = compound: C1=CC=C2C(=C1)C3=NNC4=CC=CC(=C43)C2=O
How it was run: as §1

[7] = compound: C1CCN(C1)C(=O)NC2=CC=CC(=C2)NC3=NC=C(C(=N3)NCCC4=CN=CN4)Br
How it was run: as §1

[8] = compound: C1CN(CCC1(CC2=CC=C(C=C2)Cl)N)C3=NC=NC4=C3C=CN4
How it was run: as §1

IRAK-1-4 Inhibitor I = compound: C1COCCN1CCN2C3=CC=CC=C3N=C2NC(=O)C4=CC(=CC=C4)[N+](=O)[O-] [IRAK-1-4 Inhibitor I]
How it was run: as §1

Measured: log2 fold change

ZC3H14 (UniProt Q6PJT7)
inactive: erlotinib -0.008 | [1] -0.037 | [2] 0 | [3] 0.044 | [4] -0.002 | [5] 0.01 | [6] 0.014 | [7] 0.02 | [8] 0.017 | IRAK-1-4 Inhibitor I 0.002

ZFYVE27 isoform 2 (UniProt Q5T4F4)
inactive: erlotinib -0.092 | [1] -0.01 | [2] 0.165 | [3] 0.035 | [4] -0.083 | [5] -0.006 | [6] -0.004 | [7] -0.005 | [8] 0.066 | IRAK-1-4 Inhibitor I -0.045

ZFC3H1 (UniProt O60293)
inactive: erlotinib 0.073 | [1] 0.249 | [2] 0.033 | [3] -0.069 | [4] -0.066 | [5] 0 | [6] -0.082 | [7] -0.047 | [8] -0.115 | IRAK-1-4 Inhibitor I 0.012

ZCCHC17 (UniProt Q9NP64)
inactive: erlotinib -0.003 | [1] -0.001 | [2] -0.135 | [3] -0.186 | [4] -0.035 | [5] -0.01 | [6] 0.165 | [7] 0.171 | [8] -0.024 | IRAK-1-4 Inhibitor I -0.02

ZFR (UniProt Q96KR1)
inactive: erlotinib -0.009 | [1] -0.032 | [2] -0.001 | [3] 0.031 | [4] -0.016 | [5] -0.035 | [6] -0.053 | [7] -0.024 | [8] -0.019 | IRAK-1-4 Inhibitor I 0.012

ZDHHC3 isoform 2 (UniProt Q9NYG2)
inactive: erlotinib 0.009 | [1] 0.082 | [2] -0.212 | [3] 0.018 | [4] 0.017 | [5] -0.035 | [6] -0.069 | [7] -0.013 | [8] 0.004 | IRAK-1-4 Inhibitor I 0.079

ZBED8 (UniProt Q8IZ13)
inactive: erlotinib -0.001 | [1] 0.111 | [2] 0.013 | [3] 0.186 | [4] -0.058 | [5] 0.037 | [6] -0.169 | [7] -0.038 | [8] 0.086 | IRAK-1-4 Inhibitor I 0.005

2 neighbouring records out of the list so far:
ZFC3H1 (UniProt O60293)
inactive: erlotinib 0.073 | [1] 0.249 | [2] 0.033 | [3] -0.069 | [4] -0.066 | [5] 0 | [6] -0.082 | [7] -0.047 | [8] -0.115 | IRAK-1-4 Inhibitor I 0.012

ZCCHC17 (UniProt Q9NP64)
inactive: erlotinib -0.003 | [1] -0.001 | [2] -0.135 | [3] -0.186 | [4] -0.035 | [5] -0.01 | [6] 0.165 | [7] 0.171 | [8] -0.024 | IRAK-1-4 Inhibitor I -0.02

The listing continues:

ZC2HC1A (UniProt Q96GY0)
inactive: erlotinib 0 | [1] -0.134 | [2] 0.058 | [3] 0.18 | [4] 0.073 | [5] -0.043 | [6] -0.1 | [7] -0.054 | [8] 0.009 | IRAK-1-4 Inhibitor I -0.012

YDJC (UniProt A8MPS7)
inactive: erlotinib -0.083 | [1] 0.036 | [2] -0.011 | [3] -0.012 | [4] -0.01 | [5] 0.029 | [6] -0.065 | [7] -0.034 | [8] 0.029 | IRAK-1-4 Inhibitor I -0.023

ZBTB33 (UniProt Q86T24)
inactive: erlotinib 0 | [1] 0.012 | [2] 0.101 | [3] 0.062 | [4] 0.144 | [5] -0.025 | [6] -0.101 | [7] -0.053 | [8] 0.068 | IRAK-1-4 Inhibitor I -0.042

XRCC5 (UniProt P13010)
inactive: erlotinib 0.018 | [1] -0.009 | [2] -0.034 | [3] 0.004 | [4] 0.017 | [5] 0.013 | [6] -0.025 | [7] -0.002 | [8] 0.006 | IRAK-1-4 Inhibitor I -0.01

YIPF3 (UniProt Q9GZM5)
inactive: erlotinib -0.001 | [1] -0.002 | [2] -0.047 | [3] 0.017 | [4] -0.063 | [5] 0.003 | [6] 0.036 | [7] -0.01 | [8] 0.008 | IRAK-1-4 Inhibitor I 0.023

XRCC6 (UniProt P12956)
inactive: erlotinib 0.004 | [1] -0.02 | [2] -0.016 | [3] -0.01 | [4] 0.009 | [5] 0.007 | [6] -0.014 | [7] -0.003 | [8] 0.008 | IRAK-1-4 Inhibitor I -0.006

ZCCHC8 (UniProt Q6NZY4)
inactive: erlotinib 0.016 | [1] 0.04 | [2] 0.02 | [3] -0.02 | [4] 0.017 | [5] 0.015 | [6] 0 | [7] -0.011 | [8] 0.011 | IRAK-1-4 Inhibitor I 0.014

ZER1 (UniProt Q7Z7L7)
inactive: erlotinib 0.086 | [1] 0.016 | [2] -0.009 | [3] -0.037 | [4] -0.039 | [5] 0.02 | [6] -0.047 | [7] -0.025 | [8] 0.092 | IRAK-1-4 Inhibitor I -0.059

XPO4 (UniProt Q9C0E2)
inactive: erlotinib 0.006 | [1] 0 | [2] 0.009 | [3] -0.024 | [4] -0.014 | [5] -0.015 | [6] -0.007 | [7] 0.013 | [8] 0.002 | IRAK-1-4 Inhibitor I 0

XPO7 (UniProt Q9UIA9)
inactive: erlotinib 0.024 | [1] 0.017 | [2] 0.012 | [3] 0.001 | [4] 0.011 | [5] -0.015 | [6] -0.021 | [7] -0.016 | [8] 0.034 | IRAK-1-4 Inhibitor I 0.014

XRN2 (UniProt Q9H0D6)
inactive: erlotinib 0.003 | [1] -0.059 | [2] 0.064 | [3] -0.004 | [4] -0.052 | [5] -0.053 | [6] 0.052 | [7] -0.031 | [8] -0.032 | IRAK-1-4 Inhibitor I 0.038

ZFYVE28 (UniProt Q9HCC9)
inactive: erlotinib -0.026 | [1] -0.201 | [2] 0.012 | [3] 0.021 | [4] -0.157 | [5] -0.026 | [6] -0.056 | [7] 0.055 | [8] 0.033 | IRAK-1-4 Inhibitor I 0.04

YIPF6 (UniProt Q96EC8)
inactive: erlotinib 0.021 | [1] -0.056 | [2] 0.042 | [3] 0.131 | [4] 0.08 | [5] 0.078 | [6] -0.106 | [7] 0.041 | [8] 0.06 | IRAK-1-4 Inhibitor I 0.077

YME1L1 (UniProt Q96TA2)
inactive: erlotinib 0.018 | [1] -0.136 | [2] -0.029 | [3] 0.026 | [4] 0.053 | [5] 0 | [6] 0.011 | [7] -0.006 | [8] 0.041 | IRAK-1-4 Inhibitor I 0.033

YBX3 isoform 2 (UniProt P16989)
inactive: erlotinib -0.038 | [1] -0.069 | [2] 0.008 | [3] 0.049 | [4] -0.033 | [5] -0.081 | [6] -0.027 | [7] -0.003 | [8] -0.01 | IRAK-1-4 Inhibitor I -0.013

YIF1A (UniProt O95070)
inactive: erlotinib -0.058 | [1] -0.098 | [2] -0.025 | [3] 0.038 | [4] 0.115 | [5] -0.02 | [6] -0.161 | [7] 0.01 | [8] -0.028 | IRAK-1-4 Inhibitor I 0.059

YTHDF2 (UniProt Q9Y5A9)
inactive: erlotinib -0.023 | [1] -0.015 | [2] 0.021 | [3] 0.001 | [4] 0.106 | [5] -0.153 | [6] 0.007 | [7] 0.002 | [8] 0.011 | IRAK-1-4 Inhibitor I 0.094

ZFPM1 (UniProt Q8IX07)
inactive: erlotinib 0.015 | [1] 0.039 | [2] 0.047 | [3] -0.041 | [4] 0.005 | [5] -0.01 | [6] 0.021 | [7] 0.031 | [8] -0.01 | IRAK-1-4 Inhibitor I 0.077

ZFYVE16 (UniProt Q7Z3T8)
inactive: erlotinib 0.022 | [1] -0.022 | [2] 0.022 | [3] -0.003 | [4] -0.012 | [5] 0.004 | [6] -0.035 | [7] -0.022 | [8] 0.02 | IRAK-1-4 Inhibitor I -0.003

ZC3H7B (UniProt Q9UGR2)
inactive: erlotinib -0.056 | [1] -0.01 | [2] 0.02 | [3] 0.073 | [4] 0.154 | [5] 0.001 | [6] -0.021 | [7] -0.018 | [8] 0.051 | IRAK-1-4 Inhibitor I 0.028
